Experimental data reported in PubChem BioAssay AID638 (SRMLSC, 2007).
Among all 1,300 compounds or so, about 65 (5%) were called active.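 Rule for the calls: active = growth inhibition reaching a set limit at one or more tested doses; inactive = the rest.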 The list shows a part of the results. Measured potencies and affinities stand elsewhere.

assay: wild-type E. coli BW25113 antibacterial activity – OD615, dose response (AID 638); conditions: at 100 µM (top of the series) unless noted
How it was run: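 assay system = wild-type Escherichia coli strain BW25113 growth | medium = Kanamycin-supplemented LB broth | measured by = optical density (absorbance) at 615 nm | timing = bacterial exposure to compound 20 h at 37 °C | doses = compound concentration series | measure = IC50 from 4-parameter logistic, bounds fixed 0–100% | controls = chloramphenicol 30 µM control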

Growth inhibition, inactive:
Brc1cc(Br)c2ncnc(N3CCCCC3)c2c1 7.11%
Cc1ccc(S(=O)(=O)NCCSc2nnnn2-c2cc(C)ccc2C)cc1 5.61%
O=C(Nc1ccc2oc(Cc3ccc(Cl)cc3)nc2c1)c1cccnc1 10.1%
CCCOc1nc2c(c(=O)n(C)c(=O)n2C)n1Cc1cccc2ccccc12 1.29%
Cc1csc(SCC(=O)Nc2nc(-c3ccccc3)cs2)n1 3.26%
CCCc1cc(C(=O)Nc2cccc(Cl)c2)no1 12.5%
Cc1cc(-c2nnc3n2N=C(c2ccc(-c4ccccc4)cc2)CS3)n[nH]1 1.86%
CCc1nc(N2CCCCC2C)c2oc3ccccc3c2n1 (stereo unspecified) 4.41%
CCOc1cc(-c2c(C#N)c(=O)[nH]c3c2c(C)nn3-c2ccc(F)cc2)ccc1O -1.32%
CCOC(=O)Cc1nnc2c(Nc3ccccc3F)nc3nonc3n12 -6.59%
CSc1nc(N2CCOCC2)c2c3c(sc2n1)CCCC3 -3.25%
Fc1ccc(-c2cc(C(F)(F)F)nc(NCC3CCCO3)n2)cc1 (stereo unspecified) -1.79%
COc1ccc(-c2cc(C(=O)N3CCCc4ccccc43)no2)cc1 5.16%
CCN(CCCNC(=O)c1[nH]c(C)c(C(C)=O)c1C)c1cccc(C)c1 -6.46%
Cn1c(C(=O)N2CCN(c3cccc(C(F)(F)F)c3)CC2)cc2sccc21 1.44%
CCOc1ccc(-c2nc(C#N)c(N3CCCCCC3)o2)cc1 -6.33%
Cc1cccc2cc(C(c3nnnn3CC3CCCO3)N3CCc4ccccc4C3)c(=O)[nH]c12 (stereo unspecified) 7.76%
CCC1CCCCN1C(=O)c1cc(-c2ccc(Cl)c(Cl)c2)on1 (stereo unspecified) 4.27%
CCOC(=O)c1cc2cc(-c3c(C(=O)OCC)oc4cc(O)cc(O)c4c3=O)ccc2o1 6.59%
Cc1ccc(-c2nnn(CC(=O)N(Cc3cccs3)C(C(=O)NC(C)(C)C)c3ccco3)n2)o1 (stereo unspecified) -15.2%
Cc1nc2nc(-c3ccco3)[nH]n2c(=O)c1Cc1ccccc1 3.72%
O=C(Nc1nc(-c2ccccc2)ns1)c1cccs1 -6.42%
COc1ccc(C2(O)CC3CCC(C2)N3c2nc(C)cc(C)c2C#N)cc1 (stereo unspecified) -2.64%
CCCn1c(CNc2ccc(Br)cc2)nc2ccccc21 7.8%
COc1ccc(S(=O)(=O)N(Cc2cccs2)C2CCCC2)cc1 -1.98%
O=C(Nc1cccc2cccnc12)c1ccc(Br)o1 1.98%
Cc1nc(N2CCN(c3ccccc3)CC2)nc2c1C(=O)CCC2 4.77%
Cc1nn(-c2ccccc2)c2[nH]c(=O)c(CNCc3ccc4c(c3)OCO4)cc12 10.1%
CCOC(=O)Cc1ccc(NS(=O)(=O)c2ccc(SC)cc2)cc1 2.46%
Cc1c(-c2nc(N)nc(Nc3ccccc3)n2)oc2ccccc12 -6.98%
Cc1onc(-c2c(F)cccc2Cl)c1C(=O)Nc1nc2c(s1)CCCC2 -5.05%
CCC(Sc1nnc(-c2ccc(C)c(Cl)c2)n1CC)C(=O)Nc1nccs1 (stereo unspecified) 5.37%
COC(=O)C1=C(CSc2nc3ccccc3o2)NC(=O)NC1c1cc(C)ccc1C (stereo unspecified) 14.1%
CC1CN(c2nc3c(c(=O)n(Cc4ccc(Cl)c(Cl)c4)c(=O)n3C)n2C)CC(C)O1 (stereo unspecified) -5.27%
Cc1onc(-c2ccccc2)c1C(=O)OCC(=O)c1ccccc1 1.87%
CCOC(=O)c1ccc(-n2[nH]c(-c3ccccc3)cc2=O)cc1 6.72%
COc1ccc(-c2cc(C(=O)N3CCc4ccccc4C3)no2)cc1OC 1.02%
Cc1ccc2c(c1)c1c(n2CC(O)Cn2c(C)nc3ccccc32)/C(=N\O)CCC1 (stereo unspecified) -3.7%
Cc1cc(NC(=O)COC(=O)C(Nc2ccc(C(F)(F)F)cc2Cl)C(C)C)no1 (stereo unspecified) 7.37%
O=C(NCc1ccco1)c1sc(=S)n2c1[nH]c(=O)c1ccccc12 -2.12%
Cc1nn(Cc2ccc(Cl)cc2)c(C)c1NC(=O)c1noc2c1CCCCC2 -3.16%
CN(Cc1ccccc1)Cc1nc2c(c(=O)n(C)c(=O)n2C)n1CCCc1ccccc1 -6.47%
CCOC(=O)c1sc(NC(=O)CSc2n[nH]c(-c3ccccc3)n2)c(C#N)c1C 4.26%
O=S(=O)(Nc1nc2ccccc2s1)c1ccc(Br)s1 15.3%
CCOc1ccc(Nc2cc(C)nc(-n3nc(C)cc3C)n2)cc1 10.5%
Cc1cc(C)cc(-n2ccnc2SCC(=O)Nc2ccc3c(c2)OCCO3)c1 -3.96%

Arranged by number of heavy atoms (ascending): some entries from above.
Growth inhibition, inactive:
Cc1nn(-c2ccccc2)c2[nH]c(=O)c(CNCc3ccc4c(c3)OCO4)cc12 10.1%
CCOc1cc(-c2c(C#N)c(=O)[nH]c3c2c(C)nn3-c2ccc(F)cc2)ccc1O -1.32%
CCOC(=O)c1cc2cc(-c3c(C(=O)OCC)oc4cc(O)cc(O)c4c3=O)ccc2o1 6.59%
